The test relates to HepG2 cells. Put plainly: In vitro cytotoxicity, LDH release. It is filed as cell-based. To be noted: Homo sapiens. The text has this:
To evaluate in vitro cytotoxicity of Compound 1, two different assay methods are employed. The assays evaluate cell viability by measuring ATP levels and cytotoxicity by measuring LDH release. Adenosine Triphosphate (ATP) nucleotide represents the source of energy at the basic molecular level, as it is a multifunctional molecule that is used in every cell as a coenzyme and is an integral part of the mitochondrial DNA (Kangas, et al., Medical Biology, 1984, 62, 338-343; Crouch, et al., J Immunol. Methods, 1993, 160, 81-88; and Petty, et al., J Biolumin. Chemilumin. 1995, 10, 29-34). It has been called the “molecular unit of currency” when it comes to intracellular energy transfer. […] Cell viability is determined as a measure of intracellular ATP related to the time of exposure and concentration of the test compounds (Sussman, Promega Cell Notes, Issue 3, 2002).
Another method to determine the viability of cells is to detect the integrity of the membrane that defines the cellular compartmentalization. Measuring the leakage of components out of the cytoplasm, in damaged cell membranes, indicates loss of membrane integrity, and LDH release is the method used to determine common toxicity in cells. HepG2 cells are treated with a compound of the invention, and serial dilutions are performed. […]
On the technique in general: LDH leaks from cells whose membrane has failed.

What is called EC50 is the concentration that produces a half-maximal response. Turning to `CC/C(=C(\c1ccccc1)c1ccc(OCCN(C)C)cc1)c1ccccc1` [Tamoxifen, reference compound], the EC50 was found to be 35 µM.

The record behind these values is patent publication US11319337B2, “3-desoxy derivative and pharmaceutical compositions thereof” (Intercept Pharmaceuticals, Inc., priority 2016, dated 2022).
